# Experimental data: patent publication US20040142977A1, “4-Substituted-picolinic acid amide derivatives useful as fungicides” (priority 2001, published 2004)
# Some entries share one result that the patent states for a list of compounds.
# Columns and labels:
# Alternaria brassicae = experiment: In vivo test on Alternaria brassicae (leaf spot of crucifers), radish plants; details: dose of 500 g/ha; radish plants (Pernot variety) sprayed 24 hours before contamination; grading 6 to 7 days after contamination, in comparison with control plants
# Septoria tritici = experiment: In vivo test on Septoria tritici (leaf spot of wheat), wheat plants; details: dose of 500 g/ha; wheat plants (Scipion variety) sprayed 24 hours before contamination; grading 15 to 20 days after contamination, in comparison with control plants
# Septoria nodorum = experiment: In vivo test on Septoria nodorum (wheat glume blotch), wheat plants; details: dose of 500 g/ha; wheat plants (Scipion variety) sprayed 24 hours before contamination; grading 15 to 20 days after contamination, in comparison with control plants
# [1] = test system: Erysiphe graminis f. sp. tritici; experiment: In vivo test on Erysiphe graminis f. sp. tritici (powdery mildew of wheat), wheat plants; details: dose of 500 g/ha; wheat plants (Audace variety) sprayed 24 hours before contamination; grading 7 to 14 days after contamination, in comparison with control plants
# Puccinia recondita = experiment: In vivo test on Puccinia recondita (wheat brown rust), wheat plants; details: dose of 500 g/ha; wheat plants (Scipion variety) sprayed 24 hours before contamination; grading 10 days after contamination, in comparison with control plants
# Botrytis cinerea = experiment: In vivo test on Botrytis cinerea (cucumber grey mould), cucumber plants; details: dose of 500 g/ha; cucumber plants (Marketer variety) sprayed 24 hours before contamination; grading 5/7 days after contamination, in comparison with control plants
Compound,good (at least 50%) or total protection (Alternaria brassicae),good (at least 50%) protection (Septoria tritici),good (at least 50%) or total protection (Septoria nodorum),good (at least 50%) or total protection [1],good (at least 50%) protection (Puccinia recondita),good (at least 50%) protection (Botrytis cinerea)
O=Cc1ccnc(C(=O)Nc2ccc(Oc3cccc(C(F)(F)F)c3)cc2)c1O [1-1],at least 50%,,,,,
"O=Cc1ccnc(C(=O)Nc2ccc(Oc3ccc(C(F)(F)F)cc3)cc2)c1O [1-2, 2-{N-para-[4-(trifluoromethylphenoxy)phenyl]} aminocarbonyl-3-hydroxy-4-formyl pyridine]",at least 50%,at least 50%,at least 50%,at least 50%,at least 50%,
O=C(Nc1ccc(OC(F)(F)F)cc1)c1nccc(-n2nccn2)c1O [2-5],,at least 50%,at least 50%,at least 50%,at least 50%,
O=C(Nc1ccc(Oc2cccc(C(F)(F)F)c2)cc1)c1nccc(-n2nccn2)c1O [2-6],,at least 50%,at least 50%,at least 50%,,
O=C(Nc1ccc(Oc2ccc(C(F)(F)F)cc2)cc1)c1nccc(-n2nccn2)c1O [2-8],,at least 50%,at least 50%,at least 50%,,
O=C(Nc1ccc(OCc2ccccc2)cc1)c1nccc(-n2nccn2)c1O [2-9],,,at least 50%,at least 50%,at least 50%,
CCCCOc1ccc(NC(=O)c2nccc(-n3nccn3)c2O)cc1 [2-10],at least 50%,,,,,
Cc1cn(-c2ccnc(C(=O)Nc3ccc(OC(F)(F)F)cc3)c2O)cn1 [2-13],at least 50%,,at least 50%,at least 50%,at least 50%,
Cc1cn(-c2ccnc(C(=O)Nc3ccc(Oc4ccc(C(F)(F)F)cc4)cc3)c2O)cn1 [2-14],at least 50%,,,at least 50%,,
CCCCOc1ccc(NC(=O)c2nccc(-n3cnc(C)c3)c2O)cc1 [2-15],at least 50%,,,at least 50%,,
Cc1cn(-c2ccnc(C(=O)Nc3ccc(OCc4ccccc4)cc3)c2O)cn1 [2-16],at least 50%,,,,,
Cc1cn(-c2ccnc(C(=O)Nc3cccc(OC(F)(F)F)c3)c2O)cn1 [2-17],at least 50%,,,at least 50%,,
O=C(Nc1ccc(OC(F)(F)F)cc1)c1nccc(-n2ccnc2)c1O [2-18],at least 50%,at least 50%,,at least 50%,at least 50%,
CCCCOc1ccc(NC(=O)c2nccc(-n3ccnc3)c2O)cc1 [2-19],at least 50%,at least 50%,at least 50%,at least 50%,,
O=C(Nc1ccc(OCc2ccccc2)cc1)c1nccc(-n2ccnc2)c1O [2-21],at least 50%,at least 50%,at least 50%,at least 50%,,
O=C(Nc1ccc(Oc2ccc(C(F)(F)F)cc2)cc1)c1nccc(-n2ccnc2)c1O [2-22],at least 50%,at least 50%,,at least 50%,at least 50%,
"O=C(Nc1ccc(Oc2ccc(C(F)(F)F)cc2)cc1)c1nccc(-n2ccnc2)c1O [2-24, 2-N-(3-trifluoromethylphenyl) aminocarbonyl-3-hydroxy-4-(imidazol-1-yl) pyridine]",,,at least 50%,,,
O=C(Nc1ccc(-n2nccc2C(F)(F)F)cc1)c1nccc(-n2ccnc2)c1O [2-28],,,at least 50%,,,
CCCCOc1ccc(NC(=O)c2nccc(-n3cncn3)c2O)cc1 [2-29],at least 50%,,,at least 50%,,
O=C(Nc1ccc(Oc2cccc(C(F)(F)F)c2)cc1)c1nccc(-n2cncn2)c1O [2-30],at least 50%,at least 50%,,,,
O=C(Nc1ccc(OC(F)(F)F)cc1)c1nccc(-n2cncn2)c1O [2-31],at least 50%,at least 50%,,at least 50%,,
O=C(Nc1ccc(Oc2ccc(C(F)(F)F)cc2)cc1)c1nccc(-n2cncn2)c1O [2-32],at least 50%,,at least 50%,at least 50%,,

Compound,good (at least 50%) or total protection (Alternaria brassicae),good (at least 50%) protection (Septoria tritici),good (at least 50%) or total protection (Septoria nodorum),good (at least 50%) or total protection [1],good (at least 50%) protection (Puccinia recondita),good (at least 50%) protection (Botrytis cinerea)
O=C(Nc1ccc(OCc2ccccc2)cc1)c1nccc(-n2cncn2)c1O [2-33],,,at least 50%,at least 50%,,
O=C(Nc1cccc(C(F)(F)F)c1)c1nccc(-n2cncn2)c1O [2-35],at least 50%,,at least 50%,at least 50%,,
N#Cc1ccc(NC(=O)c2nccc(-n3cncn3)c2O)cc1 [2-37],,,at least 50%,at least 50%,,
O=C(Nc1ccc(OC(F)(F)F)cc1)c1nccc(-n2cccn2)c1O [2-40],,at least 50%,at least 50%,at least 50%,,
O=C(Nc1ccc(Oc2ccc(C(F)(F)F)cc2)cc1)c1nccc(-n2cccn2)c1O [2-41],,,at least 50%,at least 50%,,
O=C(Nc1ccc(Oc2cccc(C(F)(F)F)c2)cc1)c1nccc(-n2cccn2)c1O [2-42],at least 50%,,at least 50%,at least 50%,,
O=C(Nc1ccc(OCc2ccccc2)cc1)c1nccc(-n2cccn2)c1O [2-44],,,,at least 50%,,
CCCCOc1ccc(NC(=O)c2nccc(N3CCN(C)CC3)c2O)cc1 [2-69],,,,,at least 50%,
CCCCOc1ccc(NC(=O)c2nccc(N3CCCC3)c2O)cc1 [2-71],,at least 50%,at least 50%,at least 50%,at least 50%,
O=C(Nc1ccc(Oc2cccc(C(F)(F)F)c2)cc1)c1nccc(N2CCCC2)c1O [2-72],,at least 50%,at least 50%,,,
CCCCOc1ccc(NC(=O)c2nccc(N3CCSCC3)c2O)cc1 [2-74],,at least 50%,,,,
O=C(Nc1ccc(Oc2ccc(C(F)(F)F)cc2)cc1)c1nccc(N2CCSCC2)c1O [2-75],,at least 50%,,,,
O=C(Nc1ccc(Oc2cccc(C(F)(F)F)c2)cc1)c1nccc(N2CCSCC2)c1O [2-76],,at least 50%,at least 50%,at least 50%,at least 50%,
CCCCOc1ccc(NC(=O)c2nccc(N3CCOCC3)c2O)cc1 [2-78],,,at least 50%,at least 50%,,
O=C(Nc1ccc(Oc2cccc(C(F)(F)F)c2)cc1)c1nccc(N2CCOCC2)c1O [2-79],,,,at least 50%,at least 50%,
O=C(Nc1ccc(Oc2ccc(C(F)(F)F)cc2)cc1)c1nccc(N2CCOCC2)c1O [2-80],,at least 50%,,at least 50%,at least 50%,
CCCCOc1ccc(NC(=O)c2nccc(N3CCCCC3)c2O)cc1 [2-83],at least 50%,at least 50%,,at least 50%,,
O=C(Nc1ccc(Oc2ccc(C(F)(F)F)cc2)cc1)c1nccc(N2CCCCC2)c1O [2-84],,at least 50%,at least 50%,at least 50%,at least 50%,
O=C(Nc1ccc(Oc2cccc(C(F)(F)F)c2)cc1)c1nccc(N2CCCCC2)c1O [2-85],at least 50%,at least 50%,at least 50%,at least 50%,at least 50%,
O=C(Nc1ccc(Oc2ccc(C(F)(F)F)cc2)cc1)c1nccc(-n2cccc2)c1O [2-91],,at least 50%,,,,at least 50%
"O=C(Nc1ccc(Oc2cccc(C(F)(F)F)c2)cc1)c1nccc(-n2cccc2)c1O [2-93, 2-{N-meta-[4-(trifluoromethylphenoxy)phenyl]} aminocarbonyl-3-hydroxy-4-(pyrrol-1-yl) pyridine]",at least 50%,at least 50%,at least 50%,at least 50%,,
